Measured values: PMC1079803

Legend:
[1] = target: IporinΔN847ΔC1239 (bait) (human); assay: two-hybrid; co-transformation of bait (pAS2-1) and prey (pGADT7) constructs in yeast Y190; plates lacking Trp, Leu and His with 50 mM 3-aminotriazol (his3), 30°C for 5-7 days; β-galactosidase filter lift with X-gal (lacZ)
[2] = target: GST-Iporin ΔN1430 (human); assay: pull-down; GST fusion proteins on glutathione-Sepharose beads; extract of untransfected HeLa cells, LB buffer, without goat serum; Western blot with GM130 antibodies; only the target purified
[3] = target: GST-Iporin ΔN847ΔC1239 (human); assay: as above

| Binder | binding [1] | binding [2] | binding [3] |
| --- | --- | --- | --- |
| GM130 (prey) (protein, UniProt Q08379 1-1002) MWPQPRLPPRPAMSEETRQSKLAAAKKKLREYQQRNSPGVPTGAKKKKKIKNGSNPETTTSGGCHSPEDTPKDNAATLQPSDDTVLPGGVPSPGASLTSMAASQNHDADNVPNLMDETKTFSSTESLRQLSQQLNGLVCESATCVNGEGPASSANLKDLESRYQQLAVALDSSYVTNKQLNITIEKLKQQNQEITDQLEEEKKECHQKQGALREQLQVHIQTIGILVSEKAELQTALAHTQHAARQKEGESEDLASRLQYSRRRVGELERALSAVSTQQKKADRYNKELTKERDALRLELYKNTQSNEDLKQEKSELEEKLRVLVTEKAGMQLNLEELQKKLEMTELLLQQFSSRCEAPDANQQLQQAMEERAQLEAHLGQVMESVRQLQMERDKYAENLKGESAMWRQRMQQMSEQVHTLREEKECSMSRVQELETSLAELRNQMAEPPPPEPPAGPSEVEQQLQAEAEHLRKELEGLAGQLQAQVQDNEGLSRLNREQEERLLELERAAELWGEQAEARRQILETMQNDRTTISRALSQNRELKEQLAELQSGFVKLTNENMEITSALQSEQHVKRELGKKLGELQEKLSELKETVELKSQEAQSLQQQRDQYLGHLQQYVAAYQQLTSEKEVLHNQLLLQTQLVDQLQQQEAQGKAVAEMARQELQETQERLEAATQQNQQLRAQLSLMAHPGEGDGLDREEEEDEEEEEEEAVAVPQPMPSIPEDLESREAMVAFFNSAVASAEEEQARLRGQLKEQRVRCRRLAHLLASAQKEPEAAAPAPGTGGDSVCGETHRALQGAMEKLQSRFMELMQEKADLKERVEELEHRCIQLSGETDTIGEYIALYQSQRAVLKERHREKEEYISRLAQDKEEMKVKLLELQELVLRLVGDRNEWHGRFLAAAQNPADEPTSGAPAPQELGAANQQGDLCEVSLAGSVEPAQGEAREGSPRDNPTAQQIMQLLREMQNPRERPGLGSNPCIPFFYRADENDEVKITVI | binds |  |  |
| endogenous GM130 (protein, UniProt Q08379 1-1002) MWPQPRLPPRPAMSEETRQSKLAAAKKKLREYQQRNSPGVPTGAKKKKKIKNGSNPETTTSGGCHSPEDTPKDNAATLQPSDDTVLPGGVPSPGASLTSMAASQNHDADNVPNLMDETKTFSSTESLRQLSQQLNGLVCESATCVNGEGPASSANLKDLESRYQQLAVALDSSYVTNKQLNITIEKLKQQNQEITDQLEEEKKECHQKQGALREQLQVHIQTIGILVSEKAELQTALAHTQHAARQKEGESEDLASRLQYSRRRVGELERALSAVSTQQKKADRYNKELTKERDALRLELYKNTQSNEDLKQEKSELEEKLRVLVTEKAGMQLNLEELQKKLEMTELLLQQFSSRCEAPDANQQLQQAMEERAQLEAHLGQVMESVRQLQMERDKYAENLKGESAMWRQRMQQMSEQVHTLREEKECSMSRVQELETSLAELRNQMAEPPPPEPPAGPSEVEQQLQAEAEHLRKELEGLAGQLQAQVQDNEGLSRLNREQEERLLELERAAELWGEQAEARRQILETMQNDRTTISRALSQNRELKEQLAELQSGFVKLTNENMEITSALQSEQHVKRELGKKLGELQEKLSELKETVELKSQEAQSLQQQRDQYLGHLQQYVAAYQQLTSEKEVLHNQLLLQTQLVDQLQQQEAQGKAVAEMARQELQETQERLEAATQQNQQLRAQLSLMAHPGEGDGLDREEEEDEEEEEEEAVAVPQPMPSIPEDLESREAMVAFFNSAVASAEEEQARLRGQLKEQRVRCRRLAHLLASAQKEPEAAAPAPGTGGDSVCGETHRALQGAMEKLQSRFMELMQEKADLKERVEELEHRCIQLSGETDTIGEYIALYQSQRAVLKERHREKEEYISRLAQDKEEMKVKLLELQELVLRLVGDRNEWHGRFLAAAQNPADEPTSGAPAPQELGAANQQGDLCEVSLAGSVEPAQGEAREGSPRDNPTAQQIMQLLREMQNPRERPGLGSNPCIPFFYRADENDEVKITVI |  | no binding | binds |

Results are given in words; binding and its absence hold for the method and conditions named. For part of these data: A result given as binding can be weak or reduced; the word gives no strength. For part of these data: In cells and extracts the contact can be indirect.
